Two molecules from patent publication US12656341 can be followed below.

The chains behind the UniProt entries cited, without tags or fusion partners. Residues count along the entry.
UniProt P05555, residues 17-1153: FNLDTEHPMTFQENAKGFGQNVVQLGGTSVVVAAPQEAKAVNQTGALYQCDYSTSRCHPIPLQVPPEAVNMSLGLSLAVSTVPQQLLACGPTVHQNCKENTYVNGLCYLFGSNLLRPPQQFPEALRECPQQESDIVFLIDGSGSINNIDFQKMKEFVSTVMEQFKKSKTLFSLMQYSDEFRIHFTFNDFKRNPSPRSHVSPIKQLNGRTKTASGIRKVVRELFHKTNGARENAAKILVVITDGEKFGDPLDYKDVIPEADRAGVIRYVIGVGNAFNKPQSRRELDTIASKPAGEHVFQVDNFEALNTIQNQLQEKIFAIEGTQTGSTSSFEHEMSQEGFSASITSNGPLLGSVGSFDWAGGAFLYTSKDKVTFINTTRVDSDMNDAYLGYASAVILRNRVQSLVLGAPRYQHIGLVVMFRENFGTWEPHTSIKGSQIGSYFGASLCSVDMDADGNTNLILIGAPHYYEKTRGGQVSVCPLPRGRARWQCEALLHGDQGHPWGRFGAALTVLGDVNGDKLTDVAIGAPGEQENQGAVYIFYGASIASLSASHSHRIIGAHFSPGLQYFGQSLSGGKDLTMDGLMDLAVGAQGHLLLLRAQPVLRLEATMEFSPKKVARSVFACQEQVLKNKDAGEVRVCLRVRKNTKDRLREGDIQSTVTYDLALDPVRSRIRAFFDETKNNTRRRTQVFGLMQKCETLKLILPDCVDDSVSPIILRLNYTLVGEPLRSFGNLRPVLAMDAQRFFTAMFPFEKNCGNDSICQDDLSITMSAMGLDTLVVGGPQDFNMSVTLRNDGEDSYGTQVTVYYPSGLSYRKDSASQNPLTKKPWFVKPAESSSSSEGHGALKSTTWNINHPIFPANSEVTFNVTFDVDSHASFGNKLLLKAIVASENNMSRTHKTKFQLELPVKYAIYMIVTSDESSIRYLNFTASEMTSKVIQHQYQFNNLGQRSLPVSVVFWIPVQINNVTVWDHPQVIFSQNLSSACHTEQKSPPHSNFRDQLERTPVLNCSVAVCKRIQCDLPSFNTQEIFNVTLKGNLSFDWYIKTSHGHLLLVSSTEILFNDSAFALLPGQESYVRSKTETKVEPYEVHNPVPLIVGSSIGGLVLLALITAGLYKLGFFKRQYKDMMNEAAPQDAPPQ

These are yes or no findings as the source states them, for the method shown. Some results given as binding are weak or reduced against the parent protein; the word gives no strength. For some assays here: Where a sequence is shown, tags or fusion partners need not be part of it.

The target in test [1] is CD11b on murine myeloid-derived suppressor CD11b+Gr-1+ cells (MDSC) (murine) (UniProt P05555). Description: flow cytometry, liposomes with different VHH to phospholipid ratios on murine CD11b+Gr-1+ cells (FIG. 9 legend).
For test [2] the target is unchanged. Description: flow cytometry on CD11b+Gr-1+ cells, 500 nM VHH, FITC-anti-llama detection.
Test [3] shares this target. Description: flow cytometry, FITC-dextran liposomes with post-inserted lipidated VHH on murine CD11b+Gr-1+ cells. (In general: Flow cytometry measures light scatter and fluorescence of single cells or particles in a stream.)
Test [4] shares this target. Description: flow cytometry, liposomes with different VHH to phospholipid ratios on murine CD11b+Gr-1+ cells.

B1: lipidated VHH DC13 (VHH DC13 conjugated to DMA-PEG-G5 by sortase A) (VHH)
VHH: QVQLQESGGGLVQAGGSHNLSCTASGITFSSLAMGWFRQTPGKEREFVANIMRSGSSVFYADSVRGRFTISRDNAKNTAHLQMNSLKPEDTAVYFCAATRGAWPAEYWGQGTQVTVSS
As to B1, the binding entry in test [1], in test [2], in test [3] and in test [4] was “binds” throughout.

B2: VHH DC13 (native, LPETG- and His6-tagged single-domain antibody) (VHH)
VHH: B1 VHH
Consider B2, for which the binding result in test [2] is reported as “binds”.
